{
  "sequences": {"note": "Sequences of proteins named here, by UniProt entry; tags and fusion partners are left off.", "UniProt Q02563, whole entry": "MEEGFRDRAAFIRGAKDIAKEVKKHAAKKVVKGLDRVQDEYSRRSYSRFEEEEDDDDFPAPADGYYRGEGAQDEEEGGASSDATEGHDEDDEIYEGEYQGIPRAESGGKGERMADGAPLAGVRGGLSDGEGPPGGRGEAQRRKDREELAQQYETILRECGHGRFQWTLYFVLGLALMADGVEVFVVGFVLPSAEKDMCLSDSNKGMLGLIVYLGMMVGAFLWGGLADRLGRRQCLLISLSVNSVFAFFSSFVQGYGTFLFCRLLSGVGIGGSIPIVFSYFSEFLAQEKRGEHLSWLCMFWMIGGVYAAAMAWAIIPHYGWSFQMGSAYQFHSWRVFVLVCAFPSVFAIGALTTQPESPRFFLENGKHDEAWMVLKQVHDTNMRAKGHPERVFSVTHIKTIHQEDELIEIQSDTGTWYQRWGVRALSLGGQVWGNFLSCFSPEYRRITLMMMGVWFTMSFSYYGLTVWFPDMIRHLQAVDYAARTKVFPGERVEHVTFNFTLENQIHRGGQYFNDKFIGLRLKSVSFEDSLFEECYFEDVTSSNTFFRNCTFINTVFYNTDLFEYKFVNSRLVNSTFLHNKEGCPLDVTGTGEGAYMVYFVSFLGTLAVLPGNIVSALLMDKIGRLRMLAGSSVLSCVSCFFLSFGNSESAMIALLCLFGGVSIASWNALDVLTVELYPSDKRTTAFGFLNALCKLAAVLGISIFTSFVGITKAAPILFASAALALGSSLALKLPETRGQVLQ"},
  "source": "patent US7465549B2",
  "about": "(UCB, S.A., priority 2002, dated 2008)",
  "origin": "cited, not measured here",
  "key": {"[1]": {"molecular_target": "T1, levetiracetam binding site (LBS) (Rattus norvegicus, UniProt Q02563)", "T1 construct": "host or cells: crude rat brain membranes (Noyer et al. 1995; Gillard et al. 2003)", "details": "rat brain LBS; cited from earlier work"}, "[2]": {"test_system": "audiogenic-susceptible mouse", "details": "cited from earlier work"}},
  "note": "At least one structure is not confirmed: it was looked up by name or label, or the drawing left a doubt.",
  "data": [
    {"smiles": "NC(=O)CN1CCCC1=O", "note": "[piracetam, 2-oxo-pyrrolidineacetamide]", "values": [
      {"measurement": "displacement of LEV binding", "setting": "[1]", "value": "displaced LEV binding"},
      {"measurement": "suppression of seizures", "setting": "[2]", "value": "only weakly active"}
    ]}
  ]
}
